Experimental data as given in PubChem BioAssay AID540256 (National Center for Advancing Translational Sciences (NCATS), 2011).
Where “and” joins values, the source holds several entries; their conditions need not be identical. Identical values can stand only once. Out of some 300,000 compounds screened, about 3,700 (1.2%) were called active. The inconclusive results got no clear call from the source; some entries with a clear call stand among them for comparison. Calls come from the whole dose curve; tested in HEK293 cells. A potency beside an inconclusive call is a rough fit, not a confirmed value.
Potency is the fitted concentration of half-maximal effect.

Assay: qHTS for Inhibitors of binding or entry into cells for Lassa Virus; note: nearly all actives have a fitted effect of over 50% in size
Conditions: Lassa virus pseudotype entry inhibition, cell reporter; series mostly up to 37.9 µM
For `Cc1ccc(OCCC(=O)OCC(=O)NNC(=O)c2ccccc2)cc1`, the Potency was inconclusive: 35.5 µM [activator, single point]. In the case of `CC(=O)c1c(C(C)=O)c(C)n(-c2cccc([N+](=O)[O-])c2)c1C`, the Potency is reported as “inactive”. For `COc1ccc(NC(=O)CSc2nc(C)cs2)c([N+](=O)[O-])c1`, the Potency was “inactive”. With `Cn1cc(CN2CCCC(C(=O)c3cc(F)ccc3F)C2)c2ccccc21` (stereo not given) the Potency was inconclusive: 14.1 µM [inhibitor, single point]. In the case of `COc1ccc(CNC(=O)C(c2ccco2)N(C(=O)c2csnn2)c2cccc(C)c2C)cc1` (stereo not given), the Potency is reported as inconclusive: 11.2 µM [inhibitor, partial curve, poor fit]. In the case of `COCCCNC(=S)NC1CC2CCCC(C1)N2Cc1ccco1` (stereo not given), the Potency is reported as inconclusive: 4.61 µM [activator, single point]. For `Cc1ccc(CNC(=O)C(=O)NCC2CCCN2S(=O)(=O)c2cc(C)ccc2C)cc1` (stereo not given), the Potency was inconclusive: 22.4 µM [inhibitor, single point]. In the case of `COc1cccc(NC(=O)Nc2ccc(C(C)(C)C)cc2)c1`, the Potency is reported as inconclusive: 3.55 µM [activator, partial curve, poor fit]. With `CCC(=O)Nc1cc(C)c(O)c(-c2nc3ncccc3o2)c1` the Potency was “inactive”. In the case of `Cc1cc(C(F)F)n2nc(C(=O)Nc3ccc(S(=O)(=O)N4CCCC4)cc3)nc2n1`, the Potency is reported as “inactive”. In the case of `CCCc1nc2sc3c(N4CCC(C)CC4)ncnc3c2c2c1CCCC2`, the Potency is reported as inconclusive: 6.31 µM [inhibitor, single point]. In the case of `CCCn1c(SCC(=O)Nc2ccccc2C(=O)OC)nc2c1c(=O)n(C)c(=O)n2C`, the Potency is reported as “inactive”. In the case of `CCOC(=O)/C=C/C(=O)OCC(=O)Nc1ccc(Cl)cn1`, the Potency is reported as “inactive”. For `CN(C)c1ccc(C(=O)OCc2cc(=O)n3ccsc3n2)cc1`, the Potency was inconclusive: 0.447 µM [activator, full curve, poor fit]. With `CCOC(=O)c1c(NC(=O)c2cccnc2)sc(C)c1C` the Potency was “inactive”. For `Cc1cc(C)c(NC(=O)CSc2nc3ccccc3nc2N2CCCCC2)c(C)c1`, the Potency was “inactive”. With `CC(=O)NC1(c2cccc(F)c2)CCN(CC(=O)NC2CCCCC2)CC1` the Potency was inconclusive: 11.2 µM [activator, partial curve, poor fit]. In the case of `COC(=O)c1cc(CSc2nc3ccccc3[nH]2)oc1C`, the Potency is reported as inconclusive: 7.94 µM [inhibitor, partial curve, poor fit]. In the case of `O=C1c2cccc(OCC(=O)N3CCCc4ccccc43)c2CCN1Cc1ccc(F)cc1`, the Potency is reported as inconclusive: 29.1 µM [inhibitor, single point]. For `CCC(c1nnc(SCC(=O)Nc2cc(S(C)(=O)=O)ccc2Cl)n1Cc1ccccc1)N(C)C` (stereo not given), the Potency was “inactive”. With `CN(Cc1ccon1)C(=O)CC1C(=O)NCCN1Cc1cccc(F)c1F` (stereo not given) the Potency was “inactive”. In the case of `CN(c1ccccc1)S(=O)(=O)c1ccc(Cl)c(C(=O)Nc2ccccc2N2CCOCC2)c1`, the Potency is reported as inconclusive: 14.1 µM [inhibitor, single point]. With `NC(=S)N/N=C/C=C/c1ccccc1` the Potency was “inactive”. With `O=C(C=Cc1ccc2c(c1)OCO2)c1ccccc1` the Potency was “inactive and inconclusive: 3.76 µM [activator, partial curve, poor fit]”. For `Cc1ccc2[nH]c3nc(SCCN4CCOCC4)nnc3c2c1`, the Potency was inconclusive: 11.6 µM [inhibitor, partial curve, poor fit]. In the case of `CCOC(=O)N1CCN(C(=O)/C(=C/c2ccccc2OC)NC(=O)c2ccccc2)CC1`, the Potency is reported as inconclusive: 6.51 µM [inhibitor, partial curve, poor fit]. With `CCC(CC)NC(=O)Nc1ccc(C)cc1` the Potency was inconclusive: 35.5 µM [activator, single point]. For `Oc1ccccc1C=NN=Cc1ccccc1Cl`, the Potency was inconclusive: 15.8 µM [inhibitor, partial curve, poor fit]. For `CCCCn1c(=O)[nH]c(=O)c2c1nc(Cn1ncc(Cl)c(Cl)c1=O)n2CCC`, the Potency was inconclusive: 35.5 µM [inhibitor, single point]. In the case of `COc1ccc(OC)c(N(C(=O)c2snc(C(N)=O)c2N)C(C(=O)NCC2CCCO2)c2ccc3ncccc3c2)c1` (stereo not given), the Potency is reported as inconclusive: 5.62 µM [activator, partial curve, poor fit]. With `Cc1cc(NC(=O)CN2CCCCC2)no1` the Potency was “inactive”. With `COc1ccc(C)cc1NC(=O)C1CCN(S(=O)(=O)c2cccs2)CC1` the Potency was “inactive”. For `O=C(Nc1ccc(C(=O)OCc2cc(=O)n3c4c(sc3n2)CCCC4)cc1)c1ccccc1`, the Potency was “inactive”. With `CCC(=O)Oc1ccc(C(=O)Nc2cccc(NC(=O)c3ccco3)c2)cc1` the Potency was inconclusive: 35.5 µM [inhibitor, partial curve, poor fit]. With `Cc1ccc(C(=O)NC2CCC2)cc1-c1ccc(C(=O)NCC2CC2)cc1` the Potency was active: 11.2 µM. In the case of `O=C(Nc1ccccc1)C(c1ccccc1)C1CCCC1` (stereo not given), the Potency is reported as inconclusive: 35.5 µM [inhibitor, single point]. For `CC(C)c1ccc2[nH]c3c(c2c1)CCC/C3=N\NC(=O)c1ccncc1`, the Potency was inconclusive: 11.2 µM [inhibitor, partial curve]. In the case of `O=C(CSc1cccc[n+]1[O-])c1cc(Cl)ccc1Cl`, the Potency is reported as “inactive”. With `Cc1nn(C)c(C)c1/C=N/NC(=O)C(C)(C)Oc1ccc(Cl)cc1` the Potency was “inactive”. For `CCn1c(SCc2nc(N)nc(N3CCCCC3)n2)nc2c1c(=O)n(C)c(=O)n2C`, the Potency was inconclusive: 0.355 µM [inhibitor, partial curve, poor fit]. In the case of `CN1CCN(Cc2ccccc2Sc2ccccc2)CC1`, the Potency is reported as inconclusive: 20.6 µM [inhibitor, partial curve]. For `C/C(CC(=O)Nc1ccc(Cl)c(C(F)(F)F)c1)=N\NC(N)=S`, the Potency was inconclusive: 15.8 µM [inhibitor, single point]. In the case of `Cn1cc(/C=C/c2nc3ccccc3c(=O)n2-c2ccccc2)c2ccccc21`, the Potency is reported as inconclusive: 10 µM [inhibitor, partial curve, poor fit]. In the case of `Oc1ccc(Oc2ncc(Cl)cc2Cl)cc1`, the Potency is reported as “inactive”. With `Cc1cccc(N2CCN(S(=O)(=O)c3ccc4c(c3)CCCN4C(=O)C3CCC3)CC2C)c1` (stereo not given) the Potency was inconclusive: 2.82 µM [inhibitor, full curve, poor fit] and inconclusive: 562 nM [inhibitor, full curve, poor fit].
